Measurements reported in PubChem BioAssay AID652259 (Drosophila RNAi Screening Center, 2013).
Screen: 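Genome-wide hunt for genes that control Wingless pathway activity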 (primary screen). Cells: Drosophila clone 8 imaginal disc epithelial cells. Knock-down reagent: long dsRNA against Drosophila genes. Challenge: pathway stimulated by co-transfected Wingless expression plasmid. Read-out: 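Dual luciferase reads per well after Wingless plasmid stimulation: reporter firefly light and Renilla control light; activity is firefly divided by Renilla, a ratio not deposited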. Scale: firefly reporter light: higher = more Wg reporter light, before normalisation; Renilla control light: higher = more transfected or surviving cells. Active means: 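a knock-down is a candidate when at least two out of four statistical tests show it departing from its plate mean; one test alone signals a weak candidate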. Calls: active = candidate regulator (raises or lowers reporter); inactive = not a candidate.
In all, the deposit lists about 22,000 reagents; below is a random part of those that have a named target and a result. Over the whole deposit, 233 (1.1%) got an active call. 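Light values are raw, unnormalised plate reads; the ratio scores behind the reporter calls were not deposited.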 Entries without a mark were called inactive. Not stated in the record: the amount of reagent, the time to read-out, the dose of the treatment.

Depletion of Gr23a [DRSC00410] came out at: firefly reporter light, replicate 1 = 2880; firefly reporter light, replicate 2 = 6516; Renilla control light, replicate 1 = 1303; Renilla control light, replicate 2 = 2618.
Wdr59 [DRSC02771] gave firefly reporter light, replicate 1 = 16496; Renilla control light, replicate 1 = 4731.
After knock-down of CG8219 [DRSC10971], the screen gave firefly reporter light, replicate 1 = 1696; firefly reporter light, replicate 2 = 7986; Renilla control light, replicate 1 = 1248; Renilla control light, replicate 2 = 3088.
After knock-down of Rgl [DRSC11267] the results were firefly reporter light, replicate 1 = 6188; Renilla control light, replicate 1 = 2050.
Mitf [DRSC17212] gave firefly reporter light, replicate 1 = 27685; Renilla control light, replicate 1 = 19814.
CG8289 [DRSC20101] gave firefly reporter light, replicate 1 = 2684; firefly reporter light, replicate 2 = 7059; Renilla control light, replicate 1 = 753; Renilla control light, replicate 2 = 2578.
With knock-down of Gat [DRSC17144], the record shows firefly reporter light, replicate 1 = 12794; Renilla control light, replicate 1 = 10880.
Against CG3213 [DRSC00576] the deposit lists firefly reporter light, replicate 1 = 3601; firefly reporter light, replicate 2 = 10683; Renilla control light, replicate 1 = 1456; Renilla control light, replicate 2 = 2451.
CG5849 [DRSC15893] gave firefly reporter light, replicate 1 = 33916; Renilla control light, replicate 1 = 5280.
Silencing of CG11619 [DRSC09849] gave: firefly reporter light, replicate 1 = 12064; Renilla control light, replicate 1 = 2861.
CG34221 [DRSC06150] gave firefly reporter light, replicate 1 = 3682; firefly reporter light, replicate 2 = 10867; Renilla control light, replicate 1 = 770; Renilla control light, replicate 2 = 3037.
For Dro [DRSC07406] the deposit lists firefly reporter light, replicate 1 = 7201; Renilla control light, replicate 1 = 3520.
After knock-down of CG10013 [DRSC14175], the screen gave firefly reporter light, replicate 1 = 5915; Renilla control light, replicate 1 = 2407.
Depletion of CG6678 [DRSC16092] resulted in: firefly reporter light, replicate 1 = 3444; firefly reporter light, replicate 2 = 5024; Renilla control light, replicate 1 = 1473; Renilla control light, replicate 2 = 2019.
Knock-down of LTV1 [DRSC05951] came out at: firefly reporter light, replicate 1 = 10762; Renilla control light, replicate 1 = 3768.
CG32547 [DRSC19263] showed firefly reporter light, replicate 1 = 5172; Renilla control light, replicate 1 = 2000.
With knock-down of CG32547 [DRSC19265], the record shows firefly reporter light, replicate 1 = 5388; Renilla control light, replicate 1 = 2200.
After knock-down of CG32547 [DRSC19474], the record shows firefly reporter light, replicate 1 = 22231; Renilla control light, replicate 1 = 10177.
With knock-down of CG32547 [DRSC19626] the results were firefly reporter light, replicate 1 = 17490; Renilla control light, replicate 1 = 7875.

3 consecutive records from above, quoted:
CG3213 [DRSC00576] — firefly reporter light, replicate 1 = 3601; firefly reporter light, replicate 2 = 10683; Renilla control light, replicate 1 = 1456; Renilla control light, replicate 2 = 2451
CG5849 [DRSC15893] — firefly reporter light, replicate 1 = 33916; Renilla control light, replicate 1 = 5280
CG11619 [DRSC09849] — firefly reporter light, replicate 1 = 12064; Renilla control light, replicate 1 = 2861
